No constants are given. Whether binding was seen depends on the method and setting. In cells and extracts the contact can be indirect. Binding calls can cover weak binding; strength is not graded here. Sequences can lack the tags named with a protein.

In this experiment the target is T1, MYC-NDP52 (full length) (human) (UniProt Q13137).
T1 sequence: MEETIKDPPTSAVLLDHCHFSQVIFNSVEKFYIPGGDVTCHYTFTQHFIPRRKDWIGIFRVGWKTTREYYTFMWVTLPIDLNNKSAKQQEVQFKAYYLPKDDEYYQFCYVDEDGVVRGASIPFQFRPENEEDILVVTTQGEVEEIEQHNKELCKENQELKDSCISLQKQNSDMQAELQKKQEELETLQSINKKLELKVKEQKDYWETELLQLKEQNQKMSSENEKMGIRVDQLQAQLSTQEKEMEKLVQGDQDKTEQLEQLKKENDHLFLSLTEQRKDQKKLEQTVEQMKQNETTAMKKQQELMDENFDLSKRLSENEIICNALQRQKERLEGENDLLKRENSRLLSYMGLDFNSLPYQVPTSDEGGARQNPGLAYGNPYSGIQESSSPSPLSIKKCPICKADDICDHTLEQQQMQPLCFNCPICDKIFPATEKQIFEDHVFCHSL
Kind of experiment: co-IP; HEK293FT cells co-transfected with MYC-NDP52 or MYC-tagged domain-deleted mutants and CTRL (pcDNA3.1) or FLAG-BEX2; precipitated with MYC antibody.

Consider FLAG-BEX2 (human), for which the binding entry is “binds”.

The record behind these values is paper PMC10542755.
